Results on 47 compounds are retold here after the supplement of paper PMC8090911.

Structures are written as SMILES. Structures can show the parent of a compound that is named as a salt. Some of the results follow. Repeats are few or missing, and single values can be far off.

For this test, the system named is p95-ErbB2-MCF7. Description: perinuclear lysosome accumulation (PNLA, size of LAMP2 puncta), robust Z-score vs plate median; higher = more perinuclear lysosome accumulation (reversal of invasive lysosome distribution). The settings on record: 5 µM; 24 h.
As to `CC(=O)OCC(=O)[C@H]1CC[C@H]2[C@@H]3CC[C@H]4C[C@H](O)CC[C@]4(C)[C@H]3C(=O)C[C@]12C` [Alfadolone acetate], the perinuclear lysosome accumulation amounted to 1.67.

As for `CC(C)c1c(CN(C)C(C)Cc2ccccc2)n(C)n(-c2ccccc2)c1=O` (configuration not stated) [Famprofazone], the perinuclear lysosome accumulation came to 0.467.

For the compound `O=P1(NCCCl)OCCCN1CCCl` (configuration not stated) [Ifosfamide], the perinuclear lysosome accumulation was 0.782.

As for `COc1cc2c(cc1OC)C(C)NCC2` (configuration not stated), the perinuclear lysosome accumulation was -1.08.

In the case of `NC(=O)CN1CCCC1=O` [Piracetam], the perinuclear lysosome accumulation was found to be 1.18.

Take `Cc1cccc(C)c1NC1=NCCCS1` [Xylazine]: the perinuclear lysosome accumulation stood at 0.873.

Regarding `CC(Cc1ccccc1)NCCC(c1ccccc1)c1ccccc1` (configuration not stated) [Prenylamine lactate], the perinuclear lysosome accumulation was found to be 2.94.

For `CC(=O)NC1CCSC1=O` (racemic) [N-Acetyl-DL-homocysteine Thiolactone], the perinuclear lysosome accumulation is -1.

`C[C@]12CC[C@H](O)C[C@H]1CC[C@@H]1[C@@H]2C[C@@H](O)[C@]2(C)[C@@H](C3=CC(=O)OC3)CC[C@]12O` [Digoxigenin]: the perinuclear lysosome accumulation was found to be 1.07.

Take `Clc1ccc(C(OCCN2CCCCC2)c2ccccc2)cc1` (configuration not stated) [Cloperastine hydrochloride]: the perinuclear lysosome accumulation is 1.17.

With `CN1CCN(C(=O)OC2c3nccnc3C(=O)N2c2ccc(Cl)cn2)CC1` (configuration not stated) [Zopiclone], the perinuclear lysosome accumulation was 0.925.

Take `NC(=O)C[S+]([O-])C(c1ccccc1)c1ccccc1` (configuration not stated) [Modafinil]: the perinuclear lysosome accumulation was -0.121.

`COc1ccc2c(c1)[nH]c1c(C)nccc12` [Harmine hydrochloride]: the perinuclear lysosome accumulation was -0.264.

On to `CN1[C@@H](C[C@@H](O)c2ccccc2)CCC[C@H]1C[C@H](O)c1ccccc1` [Lobelanidine hydrochloride], for which the perinuclear lysosome accumulation is -0.85.

Regarding `NCCc1c[nH]c2ccc(O)cc12` [Serotonin hydrochloride], the perinuclear lysosome accumulation came out at 1.32.

In the case of `CCN(C(C)=O)c1cccc(-c2ccnc3c(C#N)cnn23)c1` [Zaleplon], the perinuclear lysosome accumulation is -0.742.

With `COc1cc([C@@H]2c3cc4c(cc3[C@H](O)[C@H]3COC(=O)[C@H]23)OCO4)cc(OC)c1OC` [Podophyllotoxin], the perinuclear lysosome accumulation was 5.29.

On to `CCC1(c2cccc(O)c2)CCCCN(C)C1` (configuration not stated) [Meptazinol hydrochloride], for which the perinuclear lysosome accumulation was found to be 0.164.

In the case of `C[C@@H]1CC[C@H]2[C@@H](C)C(=O)O[C@@H]3O[C@@]4(C)CC[C@@H]1[C@]32OO4` [Artemisinin], the perinuclear lysosome accumulation was 2.37.

With `CCNC1(c2cccs2)CCCCC1=O` (configuration not stated) [Tiletamine hydrochloride], the perinuclear lysosome accumulation was 0.742.

As for `C[C@]12Cc3c[nH]nc3C[C@@H]1CC[C@@H]1[C@@H]2CC[C@@]2(C)[C@H]1CC[C@]2(C)O` [Stanozolol], the perinuclear lysosome accumulation was 0.112.

In the case of `CC(C)(C)NCC(O)c1ccccc1Cl` (configuration not stated) [Tulobuterol], the perinuclear lysosome accumulation was -0.459.

In the case of `CO[C@]12C[C@@H](COC(=O)c3cncc(Br)c3)CN(C)[C@@H]1Cc1cn(C)c3cccc2c13` [Nicergoline], the perinuclear lysosome accumulation is -1.14.

As for `CC(=O)OCC1=C(C(=O)O)N2C(=O)[C@@H](N)[C@H]2SC1` [Cephalosporanic acid, 7-amino], the perinuclear lysosome accumulation is -0.443.

As to `C[C@@]12N[C@@H](Cc3ccccc31)c1ccccc12` [(-)-MK 801 hydrogen maleate], the perinuclear lysosome accumulation is 1.73.

Consider `C[N+]12CCC(CC1)C(OC(=O)C(O)(c1ccccc1)c1ccccc1)C2` (configuration not stated) [Clidinium bromide], for which the perinuclear lysosome accumulation is 0.715.

Regarding `Oc1cc(Cl)ccc1Oc1ccc(Cl)cc1Cl` [Triclosan], the perinuclear lysosome accumulation was 0.237.

Consider `O[C@@H]1CCCC[C@H]1N1CCC(c2ccccc2)CC1` [L(-)-vesamicol hydrochloride], for which the perinuclear lysosome accumulation is -0.373.

As for `CCN(CC)C(C)C(=O)c1ccccc1` (configuration not stated) [Amfepramone hydrochloride], the perinuclear lysosome accumulation was 0.906.

As for `C[N+]1([O-])[C@@H]2C[C@@H](OC(=O)[C@H](CO)c3ccccc3)C[C@H]1[C@@H]1O[C@@H]12` (some centres not stated) [Scopolamin-N-oxide hydrobromide], the perinuclear lysosome accumulation is -2.17.

Turning to `C[C@]12N[C@H](Cc3ccccc31)c1ccccc12` [Dizocilpine maleate], the perinuclear lysosome accumulation is 0.595.

Turning to `CC(=O)O[C@H]1C[C@H](O[C@H]2[C@@H](O)C[C@H](O[C@H]3[C@@H](O)C[C@H](O[C@H]4CC[C@@]5(C)[C@H](CC[C@@H]6[C@@H]5C[C@@H](O)[C@]5(C)[C@@H](C7=CC(=O)OC7)CC[C@]65O)C4)O[C@@H]3C)O[C@@H]2C)O[C@H](C)[C@H]1O[C@@H]1O[C@H](CO)[C@@H](O)[C@H](O)[C@H]1O` [Lanatoside C], the perinuclear lysosome accumulation is 2.68.

`COc1ccc(CCN2CCC(Nc3nc4ccccc4n3Cc3ccc(F)cc3)CC2)cc1` [Astemizole]: the perinuclear lysosome accumulation turned out to be 2.5.

With `CC(C)(C)NCC(O)c1cc(Cl)c(N)c(Cl)c1` (configuration not stated) [Clenbuterol hydrochloride], the perinuclear lysosome accumulation is 0.875.

As for `Fc1ccc(C(OCCN2CCN(CCCc3ccccc3)CC2)c2ccc(F)cc2)cc1`, the perinuclear lysosome accumulation stood at 2.65.

In the case of `COC(=O)C1=CCCN(C)C1` [Arecoline hydrobromide], the perinuclear lysosome accumulation is -3.06.

On to `CCC1(CC)C(=O)C=CNC1=O` [Pyrithyldione], for which the perinuclear lysosome accumulation was -0.212.

As to `COc1ccc(Cc2nccc3cc(OC)c(OC)cc23)cc1OC` [Papaverine hydrochloride], the perinuclear lysosome accumulation is -0.0124.

Regarding `NCC(O)c1ccc(O)cc1` (racemic) [(+,-)-Octopamine hydrochloride], the perinuclear lysosome accumulation was -0.29.

Take `COc1ccc2c3c([nH]c2c1)C(C)=NCC3` [Harmaline hydrochloride dihydrate]: the perinuclear lysosome accumulation was -0.844.

As for `CN1[C@@H]2CC[C@H]1C[C@@H](OC1c3ccccc3CCc3ccccc31)C2` [Deptropine citrate], the perinuclear lysosome accumulation was 1.65.

Consider `CC[C@@]1([C@@H]2O[C@@H]([C@H]3O[C@@](O)(CO)[C@H](C)C[C@@H]3C)C[C@@H]2C)CC[C@H]([C@]2(C)CC[C@]3(C[C@H](O)[C@@H](C)[C@@H]([C@@H](C)[C@@H](OC)[C@H](C)C(=O)O)O3)O2)O1` [Monensin sodium salt], for which the perinuclear lysosome accumulation came out at 8.07.

With `CCN(C)C(=O)Oc1cccc([C@H](C)N(C)C)c1` [Rivastigmine], the perinuclear lysosome accumulation is -0.257.

`CCC1(c2ccc(N)cc2)CCC(=O)NC1=O` (configuration not stated) [Glutethimide, para-amino]: the perinuclear lysosome accumulation stood at 0.631.

`C[C@]12CC[C@H](O)C[C@@H]1CC[C@@H]1[C@@H]2CC[C@]2(C)C(=O)CC[C@@H]12` [Epiandrosterone]: the perinuclear lysosome accumulation came to 2.09.

Consider `CN(C)C(=O)Oc1cc(OC(=O)N(C)C)cc(C(O)CNC(C)(C)C)c1` (configuration not stated) [Bambuterol hydrochloride], for which the perinuclear lysosome accumulation was -1.06.

On to `O=[N+]([O-])c1cc([As](=O)(O)O)ccc1O` [Roxarsone], for which the perinuclear lysosome accumulation was determined as 0.662.
